Drawing on paper PMC11425881, this text covers binding for 4 molecules.

Protein sequences, listed by entry. Tags and fused reporters are not part of them.
UniProt P27361: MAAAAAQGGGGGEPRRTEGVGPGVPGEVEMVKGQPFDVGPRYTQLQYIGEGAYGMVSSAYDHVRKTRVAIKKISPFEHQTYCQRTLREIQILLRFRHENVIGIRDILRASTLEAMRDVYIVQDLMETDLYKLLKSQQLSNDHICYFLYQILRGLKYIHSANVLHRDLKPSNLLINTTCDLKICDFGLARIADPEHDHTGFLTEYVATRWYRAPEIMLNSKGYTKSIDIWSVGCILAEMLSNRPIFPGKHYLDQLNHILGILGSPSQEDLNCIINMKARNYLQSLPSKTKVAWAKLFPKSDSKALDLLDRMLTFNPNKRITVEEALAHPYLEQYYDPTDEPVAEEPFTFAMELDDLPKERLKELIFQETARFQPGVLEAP
UniProt P11142: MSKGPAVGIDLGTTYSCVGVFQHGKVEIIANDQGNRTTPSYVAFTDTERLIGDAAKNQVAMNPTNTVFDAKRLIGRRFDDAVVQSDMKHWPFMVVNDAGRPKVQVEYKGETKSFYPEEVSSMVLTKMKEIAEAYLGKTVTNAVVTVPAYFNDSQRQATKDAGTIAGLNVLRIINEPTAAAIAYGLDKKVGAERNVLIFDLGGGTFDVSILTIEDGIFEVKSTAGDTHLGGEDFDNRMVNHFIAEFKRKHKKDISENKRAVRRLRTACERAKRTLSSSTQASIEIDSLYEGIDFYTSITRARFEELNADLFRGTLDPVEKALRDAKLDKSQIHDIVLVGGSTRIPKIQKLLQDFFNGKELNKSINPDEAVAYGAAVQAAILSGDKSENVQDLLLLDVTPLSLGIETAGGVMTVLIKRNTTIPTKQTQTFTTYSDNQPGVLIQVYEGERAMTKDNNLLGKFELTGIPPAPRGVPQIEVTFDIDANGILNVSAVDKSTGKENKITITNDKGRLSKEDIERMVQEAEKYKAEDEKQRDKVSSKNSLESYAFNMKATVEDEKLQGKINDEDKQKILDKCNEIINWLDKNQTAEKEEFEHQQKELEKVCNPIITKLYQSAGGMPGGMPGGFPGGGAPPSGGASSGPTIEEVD
UniProt Q9UNE7: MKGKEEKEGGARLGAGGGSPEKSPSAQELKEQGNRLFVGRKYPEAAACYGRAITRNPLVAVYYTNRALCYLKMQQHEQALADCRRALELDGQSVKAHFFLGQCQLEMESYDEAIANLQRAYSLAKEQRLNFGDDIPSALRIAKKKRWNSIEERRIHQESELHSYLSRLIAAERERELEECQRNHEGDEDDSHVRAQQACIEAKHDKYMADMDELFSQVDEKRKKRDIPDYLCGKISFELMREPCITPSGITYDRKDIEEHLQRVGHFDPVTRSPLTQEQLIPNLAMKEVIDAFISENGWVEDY

Where two headings read alike, the source gives them in different places. No constants are given. Whether binding was seen depends on the method and setting. Binding seen in cells or lysates may run through a third protein. A yes stands for co-enrichment or nearness to the bait. Other partners may have been found. Tags and fused reporters may be left off the sequences shown.

What all share (assay): affinity purification with mass spectrometry; tagged bait (Flag-PAQR9, Myc-PAQR9 or Myc-PPM1α) expressed in HepG2 cells; proteins collected by co-IP, run on SDS-PAGE, digested and analysed by LC-MS
For assay [1], the target named is T1, Myc-tagged PPM1α, expressed in HepG2 cells (human (cDNA of HepG2 cells)) (UniProt P35813).
T1 sequence: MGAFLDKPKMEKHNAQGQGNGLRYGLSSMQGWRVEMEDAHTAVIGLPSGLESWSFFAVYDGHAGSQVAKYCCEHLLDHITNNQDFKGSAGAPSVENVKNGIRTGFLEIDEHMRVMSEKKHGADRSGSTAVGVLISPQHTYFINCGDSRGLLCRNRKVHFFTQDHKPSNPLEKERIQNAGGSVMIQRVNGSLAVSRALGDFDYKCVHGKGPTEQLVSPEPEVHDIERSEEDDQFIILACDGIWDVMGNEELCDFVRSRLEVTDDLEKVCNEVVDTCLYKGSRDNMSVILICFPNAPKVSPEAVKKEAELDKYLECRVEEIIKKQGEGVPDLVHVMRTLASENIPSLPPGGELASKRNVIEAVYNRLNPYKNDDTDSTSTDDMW

The target of assay [2] is T2, Flag-tagged PAQR9 (progesterone and adiponectin receptor 9), expressed in HepG2 cells (UniProt Q6ZVX9).
T2 sequence: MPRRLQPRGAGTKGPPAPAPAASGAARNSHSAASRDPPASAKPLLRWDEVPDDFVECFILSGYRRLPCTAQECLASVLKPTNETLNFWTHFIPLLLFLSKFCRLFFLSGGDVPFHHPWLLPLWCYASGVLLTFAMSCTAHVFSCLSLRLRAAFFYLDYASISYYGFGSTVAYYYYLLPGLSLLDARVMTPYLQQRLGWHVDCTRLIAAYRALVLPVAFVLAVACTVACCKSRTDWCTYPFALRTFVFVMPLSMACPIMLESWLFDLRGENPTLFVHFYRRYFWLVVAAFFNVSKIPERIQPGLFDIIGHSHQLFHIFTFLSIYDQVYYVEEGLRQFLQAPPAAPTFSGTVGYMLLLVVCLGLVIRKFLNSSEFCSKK

In assay [3] the target is T3, Myc-tagged PAQR9 (progesterone and adiponectin receptor 9), expressed in HepG2 cells (UniProt Q6ZVX9).
T3 sequence: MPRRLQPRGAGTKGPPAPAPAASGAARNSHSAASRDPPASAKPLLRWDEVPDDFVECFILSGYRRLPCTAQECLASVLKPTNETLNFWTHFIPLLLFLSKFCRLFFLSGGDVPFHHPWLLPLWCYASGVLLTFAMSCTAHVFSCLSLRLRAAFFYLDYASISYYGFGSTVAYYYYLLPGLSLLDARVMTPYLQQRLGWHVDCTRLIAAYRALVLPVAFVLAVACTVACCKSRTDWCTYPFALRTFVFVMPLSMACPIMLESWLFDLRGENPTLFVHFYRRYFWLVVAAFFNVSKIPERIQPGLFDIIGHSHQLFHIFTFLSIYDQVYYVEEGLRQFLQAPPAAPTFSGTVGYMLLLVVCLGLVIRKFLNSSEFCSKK

Assay [4] has as its target T2, Flag-tagged PAQR9 (progesterone and adiponectin receptor 9), expressed in HepG2 cells. This is another data set of the same source.
The target of assay [5] is T3, Myc-tagged PAQR9 (progesterone and adiponectin receptor 9), expressed in HepG2 cells. The source holds these as a separate data set.

For the molecule “ERK1, endogenous in HepG2 cells (from UniProt P27361 1-379) (enzyme)”, the binding entry in assay [1] is “binds”.
For the molecule “HSPA8, endogenous in HepG2 cells (from UniProt P11142 1-646)”, the binding entry in assay [2], in assay [3] and in assay [1] was “binds” each time.
For “STIP1 homology and U-box containing protein 1 (STUB1), endogenous in HepG2 cells (from UniProt Q9UNE7 1-303) (enzyme)”, the binding result in assay [2], in assay [3] and in assay [1] was “binds” throughout.

B1: endogenous PPM1α (protein phosphatase, Mg2+/Mn2+ dependent 1) of HepG2 cells (enzyme, UniProt P35813 1-382)
chain: MGAFLDKPKMEKHNAQGQGNGLRYGLSSMQGWRVEMEDAHTAVIGLPSGLESWSFFAVYDGHAGSQVAKYCCEHLLDHITNNQDFKGSAGAPSVENVKNGIRTGFLEIDEHMRVMSEKKHGADRSGSTAVGVLISPQHTYFINCGDSRGLLCRNRKVHFFTQDHKPSNPLEKERIQNAGGSVMIQRVNGSLAVSRALGDFDYKCVHGKGPTEQLVSPEPEVHDIERSEEDDQFIILACDGIWDVMGNEELCDFVRSRLEVTDDLEKVCNEVVDTCLYKGSRDNMSVILICFPNAPKVSPEAVKKEAELDKYLECRVEEIIKKQGEGVPDLVHVMRTLASENIPSLPPGGELASKRNVIEAVYNRLNPYKNDDTDSTSTDDMW
On to B1, for which the binding result in assay [4] and in assay [5] was “binds” throughout.
